From article PMC11122405
Substitutions are numbered along the chain they refer to. Results are given in words; binding and its absence hold for the method and conditions named. In cells and extracts the contact can be indirect. Some binding calls cover weakened binding; strength is not graded here. Tags and fused reporters may be left off the sequences shown.

Columns and labels:
Experiment in all cases: FRET or BRET; FRET index by confocal microscopy (FV10i Olympus, ImageJ) in single Flp-In T-REx HEK293 cells coexpressing LPA3-GFP (WT or mutant) and β-arrestin 2-mCherry; baseline, or 1 µM LPA or 1 µM PMA for up to 60 min
[1] = target: T1, LPA3 receptor IL3/Ctail mutant (all sites of the IL3 and Ctail mutants substituted), GFP-tagged (UniProt Q9UBY5)
T1 sequence: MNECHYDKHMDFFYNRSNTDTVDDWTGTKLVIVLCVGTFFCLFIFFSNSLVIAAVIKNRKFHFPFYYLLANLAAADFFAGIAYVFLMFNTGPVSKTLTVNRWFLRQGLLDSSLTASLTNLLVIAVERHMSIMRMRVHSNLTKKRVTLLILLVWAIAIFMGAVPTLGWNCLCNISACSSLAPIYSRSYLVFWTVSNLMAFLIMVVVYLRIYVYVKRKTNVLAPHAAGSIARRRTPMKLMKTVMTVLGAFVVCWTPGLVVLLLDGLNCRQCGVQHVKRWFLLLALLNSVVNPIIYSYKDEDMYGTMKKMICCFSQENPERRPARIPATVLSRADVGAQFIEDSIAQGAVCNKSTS

[2] = target: T2, LPA3 receptor IL3 mutant (S221A, T224A, S225A, S229A), GFP-tagged (UniProt Q9UBY5)
T2 sequence: T1 sequence with A321S, A325S, A331S, V333T, A335S, F337Y, A343S

[3] = target: T3, wild-type (WT) LPA3-GFP receptor construct (UniProt Q9UBY5)
T3 sequence: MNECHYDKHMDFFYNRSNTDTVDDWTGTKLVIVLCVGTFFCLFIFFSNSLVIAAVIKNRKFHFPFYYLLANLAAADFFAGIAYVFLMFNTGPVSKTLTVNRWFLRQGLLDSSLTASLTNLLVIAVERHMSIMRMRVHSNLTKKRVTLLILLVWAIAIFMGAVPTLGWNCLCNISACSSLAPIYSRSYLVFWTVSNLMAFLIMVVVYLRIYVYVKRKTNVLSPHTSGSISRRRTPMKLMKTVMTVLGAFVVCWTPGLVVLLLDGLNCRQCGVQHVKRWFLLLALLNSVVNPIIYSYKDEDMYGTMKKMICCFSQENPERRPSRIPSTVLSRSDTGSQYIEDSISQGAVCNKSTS

[4] = target: T4, LPA3 receptor Ctail mutant (S321A, S325A, S331A, T333V, S335A, Y337F, S343A), GFP-tagged (UniProt Q9UBY5)
T4 sequence: T1 sequence with A221S, A224T, A225S, A229S

binding [1]: binds
binding [2]: binds
binding [3]: binds
binding [4]: binds
Substance: β-arrestin 2 tagged with the mCherry protein (from UniProt P32121 1-409)
